Data on one molecule can be found in PMC12538437, “Branched DNA processing by a thermostable CAS-Cas4 from Thermococcus onnurineus: Expanding biochemical landscape of nuclease activity”.

No constants are given. Whether binding was seen depends on the method and setting.

The experiment addresses TON_0321, CAS-Cas4 protein from Thermococcus onnurineus NA1 (Thermococcus onnurineus NA1) (UniProt B6YTB9). In words: SEC; HiLoad 16/60 S200 column, 25 mM Tris-HCl pH 8.0, 10% glycerol, 500 mM NaCl; calibrated with gel filtration markers; several protein concentrations; both purified.

B1: TON_0321, CAS-Cas4 protein from Thermococcus onnurineus NA1 (enzyme, UniProt B6YTB9 1-222)
chain: MGYPEEIEEFNERIRNAIVGKTPERKIWVTSLSYCLRKAALSIYLGTFKYERTGEMLVGSVLHEWLGNALSSEDIEFEVTVEYPLEDGWKLVGRVDAVKGNYPLEFKFKGFNGEDESSPKTPDEMNEPPKLAKEQLNAYLNMMDKKLGYIYVFDRNGLSFKPFPVERDKKAFQRILRRAKVVIEGVRQLESGSFPEWIKPRYGKRECGGCLFRPICEAVESK
With B1, the binding entry is “no binding”.
